# According to the supplement of paper PMC8728848:
# This is one part of the list.
# B1: Agalectin (Anopheles gambiae) (protein)
# chain: MSNRPFTAKFPRYPENGDEVFIRGKLKDDAKSFSVNFCLPRPAQVAEHQTPPYIALHFKTIYDERDDTSRVVLNWKNLQWQQEEVLDNYWHVDRSQTFRVVFRLHEDCIKVFVNSVDHPPDYQFPVQLPLDQIESIELWDDVEHVEEISFRYDNGNSY
# Experiments:
# Experiment in all cases: glycan array binding signal (z-score within array); higher = stronger binding
# Details in all cases: glycan notation: IUPAC condensed, linker removed
# [1] = target: Fuc(a1-2)[Gal(a1-3)]Gal(b1-4)GlcNAc(b1-2)Man(a1-3)[Fuc(a1-2)[Gal(a1-3)]Gal(b1-4)GlcNAc(b1-2)Man(a1-6)]Man(b1-4)GlcNAc(b1-4)[Fuc(a1-6)]GlcNAc
# Outline: (§1)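 The binding signal is a Z-score computed within each array and averaged over linkers. Arrays of the same protein sequence at different concentrations or buffers were also averaged together. Data originate from 3228 arrays in the Consortium for Functional Glycomics database, kept only where the protein sequence was available.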
# [2] = target: Fuc(a1-2)[Gal(a1-3)]Gal(b1-4)GlcNAc(b1-3)GalNAc
# Outline: as §1
# [3] = target: Fuc(a1-2)[Gal(a1-3)]Gal(b1-4)GlcNAc(b1-3)[Fuc(a1-2)[Gal(a1-3)]Gal(b1-4)GlcNAc(b1-6)]GalNAc
# Outline: as §1
# [4] = target: Fuc(a1-2)[Gal(a1-3)]Gal(b1-4)GlcNAc(b1-6)GalNAc
# Outline: as §1
# [5] = target: Fuc(a1-2)[Gal(a1-3)]Gal(b1-4)[Fuc(a1-3)]Glc
# Outline: as §1
# [6] = target: Fuc(a1-2)[Gal(a1-3)]Gal(b1-4)[Fuc(a1-3)]GlcNAc
# Outline: as §1
# [7] = target: Fuc(a1-2)[Gal(a1-3)]Gal(b1-4)[Fuc(a1-3)]GlcNAc(b1-3)GalNAc
# Outline: as §1
# [8] = target: Fuc(a1-2)[Gal(a1-4)]Gal(b1-4)GlcNAc
# Outline: as §1
# [9] = target: Fuc(a1-2)[GalNAc(a1-3)]Gal
# Outline: as §1
# [10] = target: Fuc(a1-2)[GalNAc(a1-3)]Gal(b1-3)GalNAc(a1-3)[Fuc(a1-2)]Gal(b1-4)GlcNAc
# Outline: as §1
# [11] = target: Fuc(a1-2)[GalNAc(a1-3)]Gal(b1-3)GalNAc(b1-3)Gal(a1-4)Gal(b1-4)Glc
# Outline: as §1
# [12] = target: Fuc(a1-2)[GalNAc(a1-3)]Gal(b1-3)GlcNAc
# Outline: as §1
# [13] = target: Fuc(a1-2)[GalNAc(a1-3)]Gal(b1-3)GlcNAc(b1-2)Man(a1-3)[Fuc(a1-2)[GalNAc(a1-3)]Gal(b1-3)GlcNAc(b1-2)Man(a1-6)]Man(b1-4)GlcNAc(b1-4)GlcNAc
# Outline: as §1
# [14] = target: Fuc(a1-2)[GalNAc(a1-3)]Gal(b1-3)GlcNAc(b1-2)Man(a1-3)[Fuc(a1-2)[GalNAc(a1-3)]Gal(b1-3)GlcNAc(b1-2)Man(a1-6)]Man(b1-4)GlcNAc(b1-4)[Fuc(a1-6)]GlcNAc
# Outline: as §1
# [15] = target: Fuc(a1-2)[GalNAc(a1-3)]Gal(b1-3)GlcNAc(b1-3)GalNAc
# Outline: as §1
# [16] = target: Fuc(a1-2)[GalNAc(a1-3)]Gal(b1-3)GlcNAc(b1-6)GalNAc
# Outline: as §1
# [17] = target: Fuc(a1-2)[GalNAc(a1-3)]Gal(b1-4)Glc
# Outline: as §1
# [18] = target: Fuc(a1-2)[GalNAc(a1-3)]Gal(b1-4)GlcNAc
# Outline: as §1
# [19] = target: Fuc(a1-2)[GalNAc(a1-3)]Gal(b1-4)GlcNAc(b1-2)Man
# Outline: as §1
# [20] = target: Fuc(a1-2)[GalNAc(a1-3)]Gal(b1-4)GlcNAc(b1-2)Man(a1-3)[Fuc(a1-2)[GalNAc(a1-3)]Gal(b1-4)GlcNAc(b1-2)Man(a1-6)]Man(b1-4)GlcNAc(b1-4)GlcNAc
# Outline: as §1
# [21] = target: Fuc(a1-2)[GalNAc(a1-3)]Gal(b1-4)GlcNAc(b1-2)Man(a1-3)[Fuc(a1-2)[GalNAc(a1-3)]Gal(b1-4)GlcNAc(b1-2)Man(a1-6)]Man(b1-4)GlcNAc(b1-4)[Fuc(a1-6)]GlcNAc
# Outline: as §1
# [22] = target: Fuc(a1-2)[GalNAc(a1-3)]Gal(b1-4)GlcNAc(b1-3)Gal(b1-4)GlcNAc
# Outline: as §1
# [23] = target: Fuc(a1-2)[GalNAc(a1-3)]Gal(b1-4)GlcNAc(b1-3)Gal(b1-4)GlcNAc(b1-3)Gal(b1-4)GlcNAc
# Outline: as §1
# [24] = target: Fuc(a1-2)[GalNAc(a1-3)]Gal(b1-4)GlcNAc(b1-3)GalNAc
# Outline: as §1
# [25] = target: Fuc(a1-2)[GalNAc(a1-3)]Gal(b1-4)GlcNAc(b1-3)[Fuc(a1-2)[GalNAc(a1-3)]Gal(b1-4)GlcNAc(b1-6)]GalNAc
# Outline: as §1
# [26] = target: Fuc(a1-2)[GalNAc(a1-3)]Gal(b1-4)GlcNAc(b1-6)GalNAc
# Outline: as §1
# [27] = target: Fuc(a1-2)[GalNAc(a1-3)]Gal(b1-4)[Fuc(a1-3)]GlcNAc
# Outline: as §1
# [28] = target: Fuc(a1-2)[GalNAc(a1-3)]Gal(b1-4)[Fuc(a1-3)]GlcNAc(b1-3)GalNAc
# Outline: as §1
# [29] = target: Fuc(a1-2)[GalNAc(a1-4)]Gal(b1-4)GlcNAc
# Outline: as §1
# [30] = target: Fuc(a1-2)[GalNAc(b1-3)]Gal
# Outline: as §1
# [31] = target: Fuc(a1-3)GlcNAc
# Outline: as §1
# [32] = target: Fuc(a1-3)[Gal(b1-4)]Glc6S
# Outline: as §1
# [33] = target: Fuc(a1-3)[Gal(b1-4)]GlcNAc
# Outline: as §1
# [34] = target: Fuc(a1-3)[Gal(b1-4)]GlcNAc(b1-2)Man
# Outline: as §1
# [35] = target: Fuc(a1-3)[Gal(b1-4)]GlcNAc(b1-2)Man(a1-3)[Fuc(a1-3)[Gal(b1-4)]GlcNAc(b1-2)Man(a1-6)]Man(b1-4)GlcNAc(b1-4)GlcNAc
# Outline: as §1
# [36] = target: Fuc(a1-3)[Gal(b1-4)]GlcNAc(b1-2)Man(a1-3)[Fuc(a1-3)[Gal(b1-4)]GlcNAc(b1-2)Man(a1-6)]Man(b1-4)GlcNAc(b1-4)[Fuc(a1-6)]GlcNAc
# Outline: as §1
# [37] = target: Fuc(a1-3)[Gal(b1-4)]GlcNAc(b1-3)Gal(b1-3)[Fuc(a1-4)]GlcNAc
# Outline: as §1
# [38] = target: Fuc(a1-3)[Gal(b1-4)]GlcNAc(b1-3)Gal(b1-4)[Fuc(a1-3)]GlcNAc
# Outline: as §1
# [39] = target: Fuc(a1-3)[Gal(b1-4)]GlcNAc(b1-3)Gal(b1-4)[Fuc(a1-3)]GlcNAc(b1-3)Gal(b1-4)[Fuc(a1-3)]GlcNAc
# Outline: as §1
# [40] = target: Fuc(a1-3)[Gal(b1-4)]GlcNAc(b1-3)GalNAc
# Outline: as §1
# [41] = target: Fuc(a1-3)[Gal(b1-4)]GlcNAc(b1-6)GalNAc
# Outline: as §1
# [42] = target: Fuc(a1-3)[Gal(b1-4)]GlcNAc(b1-6)[Gal(b1-3)GlcNAc(b1-3)]Gal(b1-4)Glc
# Outline: as §1
# [43] = target: Fuc(a1-3)[Gal(b1-4)]GlcNAc6S
# Outline: as §1
# [44] = target: Fuc(a1-3)[Gal3S(b1-4)]Glc
# Outline: as §1
# [45] = target: Fuc(a1-3)[Gal3S(b1-4)]GlcNAc
# Outline: as §1
# [46] = target: Fuc(a1-3)[Gal3S(b1-4)]GlcNAc6S
# Outline: as §1
# [47] = target: Fuc(a1-3)[GalNAc(b1-4)]GlcNAc
# Outline: as §1
# [48] = target: Fuc(a1-3)[GalNAc(b1-4)]GlcNAc6S
# Outline: as §1
# [49] = target: Fuc(a1-4)GlcNAc
# Outline: as §1
# [50] = target: Fuc(b1-3)GlcNAc
# Outline: as §1
# [51] = target: Gal(a1-2)Gal
# Outline: as §1
# [52] = target: Gal(a1-3)Gal
# Outline: as §1
# [53] = target: Gal(a1-3)Gal(b1-3)GlcNAc
# Outline: as §1
# [54] = target: Gal(a1-3)Gal(b1-3)GlcNAc(b1-2)Man
# Outline: as §1
# [55] = target: Gal(a1-3)Gal(b1-3)GlcNAc(b1-2)Man(a1-3)[Gal(a1-3)Gal(b1-3)GlcNAc(b1-2)Man(a1-6)]Man(b1-4)GlcNAc(b1-4)GlcNAc
# Outline: as §1
# [56] = target: Gal(a1-3)Gal(b1-3)GlcNAc(b1-3)GalNAc
# Outline: as §1
# [57] = target: Gal(a1-3)Gal(b1-3)GlcNAc(b1-6)GalNAc
# Outline: as §1
# [58] = target: Gal(a1-3)Gal(b1-3)[Fuc(a1-4)]GlcNAc(b1-2)Man(a1-3)[Gal(a1-3)Gal(b1-3)[Fuc(a1-4)]GlcNAc(b1-2)Man(a1-6)]Man(b1-4)GlcNAc(b1-4)GlcNAc
# Outline: as §1
# [59] = target: Gal(a1-3)Gal(b1-4)Glc
# Outline: as §1
# [60] = target: Gal(a1-3)Gal(b1-4)GlcNAc
# Outline: as §1
binder,measurement,setting,value
B1,glycan array binding signal (z-score),[1],-0.719
same,glycan array binding signal (z-score),[2],-0.788
same,glycan array binding signal (z-score),[3],0.066
same,glycan array binding signal (z-score),[4],-0.234
same,glycan array binding signal (z-score),[5],-0.255
same,glycan array binding signal (z-score),[6],0.237
same,glycan array binding signal (z-score),[7],-0.734
same,glycan array binding signal (z-score),[8],-0.607
same,glycan array binding signal (z-score),[9],0.25
same,glycan array binding signal (z-score),[10],-0.308
same,glycan array binding signal (z-score),[11],0.563
same,glycan array binding signal (z-score),[12],0.471
same,glycan array binding signal (z-score),[13],-0.194
same,glycan array binding signal (z-score),[14],-0.158
same,glycan array binding signal (z-score),[15],-0.825
same,glycan array binding signal (z-score),[16],-1.13
same,glycan array binding signal (z-score),[17],0.362
same,glycan array binding signal (z-score),[18],-0.466
same,glycan array binding signal (z-score),[19],-0.074
same,glycan array binding signal (z-score),[20],0.622
same,glycan array binding signal (z-score),[21],-1.43
same,glycan array binding signal (z-score),[22],-0.278
same,glycan array binding signal (z-score),[23],1.69
same,glycan array binding signal (z-score),[24],-1.27
same,glycan array binding signal (z-score),[25],-0.409
same,glycan array binding signal (z-score),[26],0.074
same,glycan array binding signal (z-score),[27],2.7
same,glycan array binding signal (z-score),[28],-0.12
same,glycan array binding signal (z-score),[29],0.035
same,glycan array binding signal (z-score),[30],-0.572
same,glycan array binding signal (z-score),[31],-1.07
same,glycan array binding signal (z-score),[32],-0.632
same,glycan array binding signal (z-score),[33],-0.52
same,glycan array binding signal (z-score),[34],0.831
same,glycan array binding signal (z-score),[35],-1.7
same,glycan array binding signal (z-score),[36],0.571
same,glycan array binding signal (z-score),[37],-1.08
same,glycan array binding signal (z-score),[38],0.34
same,glycan array binding signal (z-score),[39],-0.383
same,glycan array binding signal (z-score),[40],-0.517
same,glycan array binding signal (z-score),[41],-0.114
same,glycan array binding signal (z-score),[42],-0.398
same,glycan array binding signal (z-score),[43],0.34
same,glycan array binding signal (z-score),[44],-0.516
same,glycan array binding signal (z-score),[45],-0.811
same,glycan array binding signal (z-score),[46],-0.759
same,glycan array binding signal (z-score),[47],0.834
same,glycan array binding signal (z-score),[48],0.253
same,glycan array binding signal (z-score),[49],-0.626
same,glycan array binding signal (z-score),[50],-0.693
same,glycan array binding signal (z-score),[51],0.111
same,glycan array binding signal (z-score),[52],0.541
same,glycan array binding signal (z-score),[53],-0.616
same,glycan array binding signal (z-score),[54],-0.656
same,glycan array binding signal (z-score),[55],1.78
same,glycan array binding signal (z-score),[56],-0.548
same,glycan array binding signal (z-score),[57],-0.394
same,glycan array binding signal (z-score),[58],1.21
same,glycan array binding signal (z-score),[59],-0.718
same,glycan array binding signal (z-score),[60],-0.703

# Reformatted: results already given
binder	measurement	setting	value
B1	glycan array binding signal (z-score)	[36]	0.571
same	glycan array binding signal (z-score)	[37]	-1.08
